This passage reports binding results from publication PMC7017634.

Sequences of proteins named here, by UniProt entry; tags and fusion partners are left off. A change or cut given only in a name is not applied to a line headed by its entry.
UniProt O43602: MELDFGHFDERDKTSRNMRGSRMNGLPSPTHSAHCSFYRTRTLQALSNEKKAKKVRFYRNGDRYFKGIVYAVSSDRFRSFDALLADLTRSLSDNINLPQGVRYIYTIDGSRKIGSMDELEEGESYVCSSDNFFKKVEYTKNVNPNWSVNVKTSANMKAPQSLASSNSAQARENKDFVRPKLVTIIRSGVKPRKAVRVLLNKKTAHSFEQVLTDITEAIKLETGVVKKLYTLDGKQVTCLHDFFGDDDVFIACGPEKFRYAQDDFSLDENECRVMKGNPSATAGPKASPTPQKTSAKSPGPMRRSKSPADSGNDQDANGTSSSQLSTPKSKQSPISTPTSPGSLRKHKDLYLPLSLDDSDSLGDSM
UniProt P52294: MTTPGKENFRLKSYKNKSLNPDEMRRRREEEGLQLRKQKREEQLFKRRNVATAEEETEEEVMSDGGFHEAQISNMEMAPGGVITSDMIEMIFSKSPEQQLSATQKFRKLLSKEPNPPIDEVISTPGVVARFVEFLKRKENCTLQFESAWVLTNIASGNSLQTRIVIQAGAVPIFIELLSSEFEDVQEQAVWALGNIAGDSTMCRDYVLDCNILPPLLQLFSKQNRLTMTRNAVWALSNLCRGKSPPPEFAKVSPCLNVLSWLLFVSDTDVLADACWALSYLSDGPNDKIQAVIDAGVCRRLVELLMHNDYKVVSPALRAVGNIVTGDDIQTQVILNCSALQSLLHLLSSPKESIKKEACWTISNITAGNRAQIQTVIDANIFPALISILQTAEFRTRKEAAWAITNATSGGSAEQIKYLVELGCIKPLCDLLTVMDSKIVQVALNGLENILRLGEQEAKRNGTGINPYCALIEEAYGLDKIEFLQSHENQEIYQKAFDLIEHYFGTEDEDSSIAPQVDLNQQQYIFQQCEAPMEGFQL
UniProt Q14974: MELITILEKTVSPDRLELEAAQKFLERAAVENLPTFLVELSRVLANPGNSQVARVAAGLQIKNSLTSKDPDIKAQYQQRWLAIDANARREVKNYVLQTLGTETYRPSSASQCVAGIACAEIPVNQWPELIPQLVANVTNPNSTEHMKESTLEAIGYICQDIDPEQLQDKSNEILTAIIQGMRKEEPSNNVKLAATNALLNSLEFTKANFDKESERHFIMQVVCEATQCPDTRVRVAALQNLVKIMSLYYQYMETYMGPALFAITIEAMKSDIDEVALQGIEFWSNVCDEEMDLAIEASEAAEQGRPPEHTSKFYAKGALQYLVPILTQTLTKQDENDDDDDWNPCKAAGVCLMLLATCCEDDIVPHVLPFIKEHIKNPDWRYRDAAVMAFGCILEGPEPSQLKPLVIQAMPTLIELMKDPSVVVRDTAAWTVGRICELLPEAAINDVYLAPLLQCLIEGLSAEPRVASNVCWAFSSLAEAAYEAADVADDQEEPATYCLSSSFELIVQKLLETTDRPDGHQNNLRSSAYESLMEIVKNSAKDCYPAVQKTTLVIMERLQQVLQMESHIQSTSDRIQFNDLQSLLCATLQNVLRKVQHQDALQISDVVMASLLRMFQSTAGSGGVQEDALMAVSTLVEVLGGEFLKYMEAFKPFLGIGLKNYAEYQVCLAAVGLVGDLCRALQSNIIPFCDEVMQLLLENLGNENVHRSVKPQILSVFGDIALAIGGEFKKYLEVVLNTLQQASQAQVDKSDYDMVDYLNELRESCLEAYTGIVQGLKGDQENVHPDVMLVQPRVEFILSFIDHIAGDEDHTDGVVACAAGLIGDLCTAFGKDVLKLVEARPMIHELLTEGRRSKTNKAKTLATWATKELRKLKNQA

These are yes or no findings as the source states them, for the method shown. In cells and extracts the contact can be indirect. Binding calls can cover weak binding; strength is not graded here.

The experiment concerns the target DCXNLS1-del (UniProt O43602). Description: co-IP; lysates of stable cells expressing the DCX vector or DCX NLS mutants.

“importin-α, endogenous in the cells with DCX vectors (from UniProt P52294 1-538)”: the binding result is “binds”.

Regarding “importin-β, endogenous in the cells with DCX vectors (from UniProt Q14974 1-876)”, the binding result is given as “binds”.
